Reference: PubChem BioAssay AID485314 (National Center for Advancing Translational Sciences (NCATS), 2010)
Screen size: about 340,000 compounds; about 4,500 (1.3%) were called active. The inconclusive results got no clear call from the source; some entries with a clear call stand among them for comparison. Calls follow the shape of the dose curve; as a rule, active = well fitted inhibition curve with a large enough effect; inconclusive = small, poorly fitted or top-dose-only effect, or another doubt; inactive = no such curve, though single readings can be large or run the other way. Where the call is inconclusive, the potency comes from a doubtful curve fit.

Each compound was assayed against DNA polymerase beta (Homo sapiens) (UniProt P06746) (assay: qHTS Assay for Inhibitors of DNA Polymerase Beta). Conditions: Pol beta primer extension/strand displacement, fluorescence kinetic; activity change, negative = inhibition: at 114 µM (top of the series).
Outline: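 Reaction started by 50 nM substrate onto compound-treated Pol beta (10 nM, 15 min preincubation, room temperature); plates read at 0 min and 10 min. Normalized concentration-effect data fitted by four-parameter Hill equation.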
% is scaled to controls: 0 for no effect and ±100 for the full control effect; potency is read from the fitted curve at half-maximal effect.

For `CCOC(=O)C1=C(Cc2ccc(Cl)cc2)C(=O)c2ccccc2C1=O`, which “activity change, negative = inhibition” value is on record?
The value was inactive: 9.73%.

`O=C(Nc1ccc(-c2nc3ncccc3o2)cc1)c1ccc([N+](=O)[O-])o1` was tested. Which Potency did it give?
The Potency was active: 50.1 µM.

Which Potency does the source give for `O=[N+]([O-])c1cc([N+](=O)[O-])c2oc(-c3ccccc3)c(Br)c2c1O` here?
The Potency was active: 28.2 µM.

For `CN(C)S(=O)(=O)c1ccc2c(c1)c(=O)c(C(=O)N1CCN(c3cccc(Cl)c3)CC1)cn2C`, which “activity change, negative = inhibition” value is on record?
Its value is inactive: 13.9%.

With `CCCOc1ccc(C(=O)N2CCCc3ccccc32)cc1` as the compound, how does the Potency read?
The Potency was inconclusive: 28.2 µM [inhibitor, full curve].

Which Potency does the source give for `CC(C)OC(=O)c1cc2c(ccn2C)n1CC(=O)N(Cc1ccccc1)c1ccccc1` here?
Its Potency is inconclusive: 3.55 µM [inhibitor, full curve].

With `COc1ccc2cc(C(=O)c3ccccc3)c(=O)oc2c1` as the compound, how does the Potency read?
The Potency was inconclusive: 5.01 µM [inhibitor, full curve, poor fit].

For `Cc1[nH]n(-c2ccc([N+](=O)[O-])cc2)c(=O)c1C=NCCc1ccc(S(N)(=O)=O)cc1`, which “activity change, negative = inhibition” value is on record?
The value was inactive: 5.56%.

Which Potency does the source give for `N#Cc1c(-c2ccccc2Cl)c2c([nH]c1=O)-c1ccccc1OC2` here?
Its Potency is inconclusive: 50.1 µM [inhibitor, single point].

Which Potency does the source give for `C/C(=N\NC(=S)NCCc1ccccc1)c1ccc(Cl)cc1Cl` here?
Its Potency is inconclusive: 14.1 µM [inhibitor, partial curve].

How did the “activity change, negative = inhibition” value turn out when `CC1(OC(=O)CCc2ccccc2)C(=O)C=C2C=C(c3ccc(C#N)cc3)N(C3CCCCC3)C=C2C1=O` (centres undefined) was run?
Its value is inactive: 2.49%.

How did the Potency turn out when `O=C1OC(c2ccc(Cl)cc2)=N/C1=C\C=C\c1ccco1` was run?
The Potency was active: 28.2 µM.

With `O=C(CCCN1C(=O)/C(=C\c2ccccc2)SC1=S)Nc1ccc(O)cc1C(=O)O` as the compound, how does the “activity change, negative = inhibition” value read?
The value was inactive: 5.08%.

Which “activity change, negative = inhibition” value does the source give for `CC(=O)Nc1ccc(NC(=O)c2cc([N+](=O)[O-])cc([N+](=O)[O-])c2)cc1` here?
The value was inactive: 3.41%.

With `Cc1cc(C)c(S(=O)(=O)NCCc2cc3c(C)ccc(C)c3[nH]c2=O)c(C)c1` as the compound, how does the Potency read?
Its Potency is inconclusive: 0.398 µM [inhibitor, full curve, poor fit].

For `CCOC(=O)CSc1nc2ccc(NC(=O)CSc3nnnn3Cc3ccccc3)cc2s1`, which Potency is on record?
Its Potency is inconclusive: 0.282 µM [inhibitor, full curve, poor fit].

Which Potency does the source give for `O=C(NC(NC(=S)Nc1ccccc1C(=O)O)C(Cl)(Cl)Cl)c1ccco1` (centres undefined) here?
Its Potency is inconclusive: 89.1 µM [inhibitor, single point].

How did the Potency turn out when `Cc1nc(=O)c(-c2ccccc2)c(C)n1-c1ccccc1C(=O)O` was run?
The Potency was inconclusive: 89.1 µM [inhibitor, single point].

With `COc1ccc(N2CCN(C(=O)Cn3ncc4c3-c3cc(C)ccc3OC4)CC2)cc1` as the compound, how does the Potency read?
The Potency was inconclusive: 0.708 µM [inhibitor, full curve, poor fit].
